Source: the Kinase Knowledgebase extract (Sharma et al. 2016)

Target: CDK2 (UniProt P24941)
Assay: Enzyme Assay

IC50: 650 nM
Compound: CC(C)n1cnc2c(NCc3cccc(I)c3)nc(N3CCC[C@@H]3CO)nc21
